Results taken from patent publication US20100266575A1.

Assays:
[1] = biological target: sFlt-1 antigen (domains 1-3; R&D Systems) (human); assay: double-mAb sandwich CMIA on … (Example 7); positive = RLU > 400,000 at 1,000 pg/mL calibrator
[2] = biological target: sFlt-1 antigen (domains 1-3; R&D Systems) (human); assay: sandwich CMIA on … (Example 7): sFlt-1 antigen captured by a mAb on microparticles, PlGF-acridinium as conjugate; positive = RLU > 400,000 at 1,000 pg/mL calibrator

binding [1]	binding [2]	Binder
binds	–	anti-sFlt-1 monoclonal antibody 1-833-527 (antibody, V domains shown) VH: QVQLQQSGAELVGPGSSVKISCKASGYAFSSYWMNWVKQRPGQGLEWIGQIYPGDGDTNYNGKFRGKVTLTADRSSSTADMQLSSLTSEDSAVYFCARDDGYEGFDYWGQGTTLTVSS VL: DIVMTQSQKFMSTTVGDRVSLTCKASQSVGTAVAWYQEKTGQSPKLLIYSASNRYTGVPDRFTGSGSGTDFILTIRNMQSVDLADYFCQQYFTYPYTFGGGTKLEIQR
–	binds	placental growth factor (PlGF) (ligand, UniProt P49763-2 21-149, looked up) AVPPQQWALSAGNGSSEVEVVPFQEVWGRSYCRALERLVDVVSEYPSEVEHMFSPSCVSLLRCTGCCGDENLHCVPVETANVTMQLLKIRSGDRPSYVELTFSQHVRCECRPLREKMKPERCGDAVPRR

Results are given in words; binding and its absence hold for the method and conditions named. A result given as binding can be weak or reduced; the word gives no strength.
